Measurements reported in patent publication US20240287166A1 (published 2024).
These are yes or no findings as the source states them, for the method shown. Some binding calls cover weakened binding; strength is not graded here.

Columns and labels:
[1] = biological target: recombinant CSP (rCSP) (UniProt P19597); assay: binding ELISA on rCSP (summary for down selection)
[2] = biological target: recombinant CSP (rCSP) (UniProt P19597); assay: binding ELISA on rCSP, supernatants and mouse sera (FIG. 2)
[3] = biological target: recombinant CSP (rCSP) (UniProt P19597); assay: binding ELISA on rCSP, pooled mouse sera Day 10 (FIG. 2F)
[4] = biological target: recombinant CSP (rCSP) (UniProt P19597); assay: binding ELISA on rCSP, Expi293F supernatants (FIG. 2D)
[5] = biological target: recombinant CSP (rCSP) (UniProt P19597); assay: binding ELISA on rCSP, Expi293F supernatants, compared with mAb 311 (FIG. 2D)
[6] = biological target: recombinant CSP (rCSP) (UniProt P19597); assay: binding ELISA on rCSP, in vitro produced supernatants (FIG. 6B)

Measured: binding

B1: 10e DMAb-1 (antibody, human IgG1, lambda, V domains shown)
VH: QVQLVESGGGVVQPGRSLRLSCAASGFAFSNYGMNWVRQAPGKGLEWVAVIWHDGSLKYYTQSVKGRFTISRDNAKNTLFLQMDSLSADDTAMYYCTVWYLETPDDGFDIWGRGTMVTVSS
VL: QLVLTQPPSASASLGVSVTLTCTLSHGHTSKAIAWHQQQPGKGPRYLMKVNSDGSHTKGAAVPDRFSGSTSGAERHFTISNLQSDDEADYYCQAWDSGIWVFGGGTKLTVLG
not listed: [6]
binds: all other assays above

B2: 10e DMAb-2 (antibody, human IgG1, lambda, V domains shown)
VH: QVQLVESGGGVVQPGRSLRLSCAASGFAFSNYGMHWVRQAPGKGLEWVAVIWHDGSLKYYTQSVKGRFTISRDNSKNTLYLQMNSLRAEDTAVYYCTVWYLETPDDGFDIWGQGTMVTVSS
VL: QLVLTQPPSASASLGVSVTLTCTLSHGHTSKAIAWHQQQPGKGPRYLMKVNSDGSHTKGAAVPDRFSGSTSGAERHFTISNLQSDDEADYYCQAWDSGIWVFGGGTKLTVLG
notes: also called MGU10-based engineered DMAb 2; 10e DMAb-2 (MGU10 VH-1 / MGU10 VL)
binds: all assays above
